{"source": "paper PMC9104804", "about": "“Fine-Tuning Modulation of Oxidation-Mediated Posttranslational Control of Bradyrhizobium diazoefficiens FixK2 Transcription Factor”", "target": "T1, C183D FixK2 (Bradyrhizobium diazoefficiens 110spc4) (UniProt O69245)", "T1 sequence (looked up, limits assumed)": "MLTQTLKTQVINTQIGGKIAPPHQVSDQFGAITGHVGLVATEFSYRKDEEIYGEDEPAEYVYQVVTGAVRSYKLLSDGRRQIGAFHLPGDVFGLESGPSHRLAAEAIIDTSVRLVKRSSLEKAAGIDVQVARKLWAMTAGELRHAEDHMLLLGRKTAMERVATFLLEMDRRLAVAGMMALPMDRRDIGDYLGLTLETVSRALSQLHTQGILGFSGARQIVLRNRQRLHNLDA", "assay": "SPR", "conditions": "interacted poorly, no Kd or kinetics calculable, non-specific at high concentrations (up to 3 uM); 5'-biotin on reverse strand (S47); SPR: 40 mM Tris-HCl pH 7.0, 150 mM KCl, 0.1 mM EDTA, 0.005% Tween 20, 25 °C; recombinant protein; label: biotin", "note": "Construct, isoform or probe ends are uncertain for at least one entry. A weaker result is weaker than the reference pair of the same experiment. Tags and fusion partners may be left off the protein sequences shown."}
{"sequence": "CCACCTATCTTGATTTCAATCAATTCCCCG (double strand) [fixN_3 FixK2 box duplex (SPR)]", "values": [{"measurement": "binding result", "result": "binds more weakly"}]}
